Our source for the binding values is paper PMC13172546.

Sequences of proteins named here, by UniProt entry; tags and fusion partners are left off.
UniProt P46937: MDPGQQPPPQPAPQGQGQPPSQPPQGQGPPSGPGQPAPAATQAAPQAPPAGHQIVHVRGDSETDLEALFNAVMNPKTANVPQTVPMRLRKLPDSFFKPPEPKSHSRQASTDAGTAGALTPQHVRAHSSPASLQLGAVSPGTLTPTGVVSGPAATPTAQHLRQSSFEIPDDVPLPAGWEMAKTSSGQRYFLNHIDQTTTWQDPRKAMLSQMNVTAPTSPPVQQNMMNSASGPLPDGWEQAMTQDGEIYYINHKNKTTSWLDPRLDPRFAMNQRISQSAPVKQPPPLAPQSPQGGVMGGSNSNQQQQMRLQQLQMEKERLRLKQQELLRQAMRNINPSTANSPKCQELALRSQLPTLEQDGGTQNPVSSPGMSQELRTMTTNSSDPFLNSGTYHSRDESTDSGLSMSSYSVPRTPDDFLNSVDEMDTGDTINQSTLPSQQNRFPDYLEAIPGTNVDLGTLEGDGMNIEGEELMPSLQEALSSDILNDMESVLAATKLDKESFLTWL
UniProt Q2KHR3: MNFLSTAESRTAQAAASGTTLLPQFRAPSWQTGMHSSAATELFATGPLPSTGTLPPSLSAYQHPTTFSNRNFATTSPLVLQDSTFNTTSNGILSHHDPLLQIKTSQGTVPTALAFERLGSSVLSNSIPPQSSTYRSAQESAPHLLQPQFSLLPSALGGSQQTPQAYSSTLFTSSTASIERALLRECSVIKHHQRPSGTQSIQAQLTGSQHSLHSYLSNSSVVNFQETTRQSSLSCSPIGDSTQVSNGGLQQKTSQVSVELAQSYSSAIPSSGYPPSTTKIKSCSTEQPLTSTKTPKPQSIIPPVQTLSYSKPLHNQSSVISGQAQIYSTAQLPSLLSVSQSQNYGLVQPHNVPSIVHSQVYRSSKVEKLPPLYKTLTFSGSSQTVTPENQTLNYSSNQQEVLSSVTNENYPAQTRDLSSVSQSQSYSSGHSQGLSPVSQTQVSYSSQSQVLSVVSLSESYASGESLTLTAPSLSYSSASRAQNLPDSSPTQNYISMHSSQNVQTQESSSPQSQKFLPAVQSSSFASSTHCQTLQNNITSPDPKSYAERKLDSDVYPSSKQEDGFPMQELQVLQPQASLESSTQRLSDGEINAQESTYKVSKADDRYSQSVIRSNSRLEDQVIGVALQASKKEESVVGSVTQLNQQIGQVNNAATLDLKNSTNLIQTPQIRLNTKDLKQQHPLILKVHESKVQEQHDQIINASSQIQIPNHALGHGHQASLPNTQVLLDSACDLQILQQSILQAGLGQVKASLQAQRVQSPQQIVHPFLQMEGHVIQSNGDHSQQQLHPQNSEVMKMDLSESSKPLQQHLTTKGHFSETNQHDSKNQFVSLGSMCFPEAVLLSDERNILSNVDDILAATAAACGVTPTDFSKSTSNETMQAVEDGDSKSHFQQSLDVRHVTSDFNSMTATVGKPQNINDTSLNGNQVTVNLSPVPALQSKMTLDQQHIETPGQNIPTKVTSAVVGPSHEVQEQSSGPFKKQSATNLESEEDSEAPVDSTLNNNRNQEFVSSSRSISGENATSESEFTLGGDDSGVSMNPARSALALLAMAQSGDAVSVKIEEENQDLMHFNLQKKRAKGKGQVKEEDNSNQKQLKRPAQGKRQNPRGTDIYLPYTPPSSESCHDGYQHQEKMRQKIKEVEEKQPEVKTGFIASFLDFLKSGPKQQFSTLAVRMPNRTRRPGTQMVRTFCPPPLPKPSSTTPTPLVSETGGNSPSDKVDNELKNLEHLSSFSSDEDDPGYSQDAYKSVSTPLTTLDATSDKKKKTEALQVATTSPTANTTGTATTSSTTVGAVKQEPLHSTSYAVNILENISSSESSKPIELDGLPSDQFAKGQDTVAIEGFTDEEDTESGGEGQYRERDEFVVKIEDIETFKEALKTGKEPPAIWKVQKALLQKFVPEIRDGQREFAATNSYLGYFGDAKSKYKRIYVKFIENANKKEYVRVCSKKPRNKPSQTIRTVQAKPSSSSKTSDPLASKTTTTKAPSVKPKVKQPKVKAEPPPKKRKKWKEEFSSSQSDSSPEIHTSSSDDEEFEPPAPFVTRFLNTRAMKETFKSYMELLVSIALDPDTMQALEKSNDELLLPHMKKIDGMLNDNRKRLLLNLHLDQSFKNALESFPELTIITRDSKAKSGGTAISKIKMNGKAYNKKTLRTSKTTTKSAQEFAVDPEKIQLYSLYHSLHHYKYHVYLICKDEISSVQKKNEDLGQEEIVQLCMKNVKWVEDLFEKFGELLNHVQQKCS

These are yes or no findings as the source states them, for the method shown. In cells and extracts the contact can be indirect. Here binding means that the protein was enriched with, or labelled near, the bait; the list need not be complete.

The target of this experiment is YAP1-MYC-BIR2 fusion protein (human) (UniProt P46937). Kind of experiment: proximity labelling; BioID2 with YAP1-Myc-Bir2 as bait in H1 hESCs; 25 pg/ml doxycycline 24 h, then 50 mM biotin 16 h; nuclear fraction; streptavidin affinity purification and LC-MS/MS; four conditions (+/- dox, +/- biotin), n = 3.

QSER1 (from UniProt Q2KHR3 1-1735): the binding entry is on record as “binds”.

B1: GOLGA5 (protein, UniProt Q8TBA6 1-731)
chain: MSWFVDLAGKAEDLLNRVDQGAATALSRKDNASNIYSKNTDYTELHQQNTDLIYQTGPKSTYISSAADNIRNQKATILAGTANVKVGSRTPVEASHPVENASVPRPSSHFVRRKKSEPDDELLFDFLNSSQKEPTGRVEIRKEKGKTPVFQSSQTSSVSSVNPSVTTIKTIEENSFGSQTHEAASNSDSSHEGQEESSKENVSSNAACPDHTPTPNDDGKSHELSNLRLENQLLRNEVQSLNQEMASLLQRSKETQEELNKARARVEKWNADHSKSDRMTRGLRAQVDDLTEAVAAKDSQLAVLKVRLQEADQLLSTRTEALEALQSEKSRIMQDQSEGNSLQNQALQTFQERLHEADATLKREQESYKQMQSEFAARLNKVEMERQNLAEAITLAERKYSDEKKRVDELQQQVKLYKLNLESSKQELIDYKQKATRILQSKEKLINSLKEGSGFEGLDSSTASSMELEELRHEKEMQREEIQKLMGQIHQLRSELQDMEAQQVNEAESAREQLQDLHDQIAGQKASKQELETELERLKQEFHYIEEDLYRTKNTLQSRIKDRDEEIQKLRNQLTNKTLSNSSQSELENRLHQLTETLIQKQTMLESLSTEKNSLVFQLERLEQQMNSASGSSSNGSSINMSGIDNGEGTRLRNVPVLFNDTETNLAGMYGKVRKAASSIDQFSIRLGIFLRRYPIARVFVIIYMALLHLWVMIVLLTYTPEMHHDQPYGK
As to B1, the binding result is given as “binds”.

B2: CALD1 (protein, UniProt Q05682 1-793)
chain: MDDFERRRELRRQKREEMRLEAERIAYQRNDDDEEEAARERRRRARQERLRQKQEEESLGQVTDQVEVNAQNSVPDEEAKTTTTNTQVEGDDEAAFLERLARREERRQKRLQEALERQKEFDPTITDASLSLPSRRMQNDTAENETTEKEEKSESRQERYEIEETETVTKSYQKNDWRDAEENKKEDKEKEEEEEEKPKRGSIGENQVEVMVEEKTTESQEETVVMSLKNGQISSEEPKQEEEREQGSDEISHHEKMEEEDKERAEAERARLEAEERERIKAEQDKKIADERARIEAEEKAAAQERERREAEERERMREEEKRAAEERQRIKEEEKRAAEERQRIKEEEKRAAEERQRIKEEEKRAAEERQRARAEEEEKAKVEEQKRNKQLEEKKHAMQETKIKGEKVEQKIEGKWVNEKKAQEDKLQTAVLKKQGEEKGTKVQAKREKLQEDKPTFKKEEIKDEKIKKDKEPKEEVKSFMDRKKGFTEVKSQNGEFMTHKLKHTENTFSRPGGRASVDTKEAEGAPQVEAGKRLEELRRRRGETESEEFEKLKQKQQEAALELEELKKKREERRKVLEEEEQRRKQEEADRKLREEEEKRRLKEEIERRRAEAAEKRQKMPEDGLSDDKKPFKCFTPKGSSLKIEERAEFLNKSVQKSSGVKSTHQAAIVSKIDSRLEQYTSAIEGTKSAKPTKPAASDLPVPAEGVRNIKSMWEKGNVFSSPTAAGTPNKETAGLKVGVSSRINEWLTKTPDGNKSPAPKPSDLRPGDVSSKRNLWEKQSVDKVTSPTKV
Take B2: the binding entry was “binds”.

B3: SALL2 (protein, UniProt Q9Y467 1-1007)
chain: MSRRKQRKPQQLISDCEGPSASENGDASEEDHPQVCAKCCAQFTDPTEFLAHQNACSTDPPVMVIIGGQENPNNSSASSEPRPEGHNNPQVMDTEHSNPPDSGSSVPTDPTWGPERRGEESSGHFLVAATGTAAGGGGGLILASPKLGATPLPPESTPAPPPPPPPPPPPGVGSGHLNIPLILEELRVLQQRQIHQMQMTEQICRQVLLLGSLGQTVGAPASPSELPGTGTASSTKPLLPLFSPIKPVQTSKTLASSSSSSSSSSGAETPKQAFFHLYHPLGSQHPFSAGGVGRSHKPTPAPSPALPGSTDQLIASPHLAFPSTTGLLAAQCLGAARGLEATASPGLLKPKNGSGELSYGEVMGPLEKPGGRHKCRFCAKVFGSDSALQIHLRSHTGERPYKCNVCGNRFTTRGNLKVHFHRHREKYPHVQMNPHPVPEHLDYVITSSGLPYGMSVPPEKAEEEAATPGGGVERKPLVASTTALSATESLTLLSTSAGTATAPGLPAFNKFVLMKAVEPKNKADENTPPGSEGSAISGVAESSTATRMQLSKLVTSLPSWALLTNHFKSTGSFPFPYVLEPLGASPSETSKLQQLVEKIDRQGAVAVTSAASGAPTTSAPAPSSSASSGPNQCVICLRVLSCPRALRLHYGQHGGERPFKCKVCGRAFSTRGNLRAHFVGHKASPAARAQNSCPICQKKFTNAVTLQQHVRMHLGGQIPNGGTALPEGGGAAQENGSEQSTVSGARSFPQQQSQQPSPEEELSEEEEEEDEEEEEDVTDEDSLAGRGSESGGEKAISVRGDSEEASGAEEEVGTVAAAATAGKEMDSNEKTTQQSSLPPPPPPDSLDQPQPMEQGSSGVLGGKEEGGKPERSSSPASALTPEGEATSVTLVEELSLQEAMRKEPGESSSRKACEVCGQAFPSQAALEEHQKTHPKEGPLFTCVFCRQGFLERATLKKHMLLAHHQVQPFAPHGPQNIAALSLVPGCSPSITSTGLSPFPRKDDPTIP
B3: the binding result is given as “binds”.

B4: WAPL (protein, UniProt Q7Z5K2 1-1190)
chain: MTSRFGKTYSRKGGNGSSKFDEVFSNKRTTLSTKWGETTFMAKLGQKRPNFKPDIQEIPKKPKVEEESTGDPFGFDSDDESLPVSSKNLAQVKCSSYSESSEAAQLEEVTSVLEANSKISHVVVEDTVVSDKCFPLEDTLLGKEKSTNRIVEDDASISSCNKLITSDKVENFHEEHEKNSHHIHKNADDSTKKPNAETTVASEIKETNDTWNSQFGKRPESPSEISPIKGSVRTGLFEWDNDFEDIRSEDCILSLDSDPLLEMKDDDFKNRLENLNEAIEEDIVQSVLRPTNCRTYCRANKTKSSQGASNFDKLMDGTSQALAKANSESSKDGLNQAKKGGVSCGTSFRGTVGRTRDYTVLHPSCLSVCNVTIQDTMERSMDEFTASTPADLGEAGRLRKKADIATSKTTTRFRPSNTKSKKDVKLEFFGFEDHETGGDEGGSGSSNYKIKYFGFDDLSESEDDEDDDCQVERKTSKKRTKTAPSPSLQPPPESNDNSQDSQSGTNNAENLDFTEDLPGVPESVKKPINKQGDKSKENTRKIFSGPKRSPTKAVYNARHWNHPDSEELPGPPVVKPQSVTVRLSSKEPNQKDDGVFKAPAPPSKVIKTVTIPTQPYQDIVTALKCRREDKELYTVVQHVKHFNDVVEFGENQEFTDDIEYLLSGLKSTQPLNTRCLSVISLATKCAMPSFRMHLRAHGMVAMVFKTLDDSQHHQNLSLCTAALMYILSRDRLNMDLDRASLDLMIRLLELEQDASSAKLLNEKDMNKIKEKIRRLCETVHNKHLDLENITTGHLAMETLLSLTSKRAGDWFKEELRLLGGLDHIVDKVKECVDHLSRDEDEEKLVASLWGAERCLRVLESVTVHNPENQSYLIAYKDSQLIVSSAKALQHCEELIQQYNRAEDSICLADSKPLPHQNVTNHVGKAVEDCMRAIIGVLLNLTNDNEWGSTKTGEQDGLIGTALNCVLQVPKYLPQEQRFDIRVLGLGLLINLVEYSARNRHCLVNMETSCSFDSSICSGEGDDSLRIGGQVHAVQALVQLFLERERAAQLAESKTDELIKDAPTTQHDKSGEWQETSGEIQWVSTEKTDGTEEKHKKEEEDEELDLNKALQHAGKHMEDCIVASYTALLLGCLCQESPINVTTVREYLPEGDFSIMTEMLKKFLSFMNLTCAVGTTGQKSISRVIEYLEHC
Regarding B4, the binding entry was “binds”.

B5: SNW1 (protein, UniProt Q13573 1-536)
chain: MALTSFLPAPTQLSQDQLEAEEKARSQRSRQTSLVSSRREPPPYGYRKGWIPRLLEDFGDGGAFPEIHVAQYPLDMGRKKKMSNALAIQVDSEGKIKYDAIARQGQSKDKVIYSKYTDLVPKEVMNADDPDLQRPDEEAIKEITEKTRVALEKSVSQKVAAAMPVRAADKLAPAQYIRYTPSQQGVAFNSGAKQRVIRMVEMQKDPMEPPRFKINKKIPRGPPSPPAPVMHSPSRKMTVKEQQEWKIPPCISNWKNAKGYTIPLDKRLAADGRGLQTVHINENFAKLAEALYIADRKAREAVEMRAQVERKMAQKEKEKHEEKLREMAQKARERRAGIKTHVEKEDGEARERDEIRHDRRKERQHDRNLSRAAPDKRSKLQRNENRDISEVIALGVPNPRTSNEVQYDQRLFNQSKGMDSGFAGGEDEIYNVYDQAWRGGKDMAQSIYRPSKNLDKDMYGDDLEARIKTNRFVPDKEFSGSDRRQRGREGPVQFEEDPFGLDKFLEEAKQHGGSKRPSDSSRPKEHEHEGKKRRKE
As to B5, the binding result is “binds”.
